Reference: PubChem BioAssay AID1224830 (NIAID, 2016)

Aim: 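Host factors that control LPS-induced TNF expression in human macrophages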 (primary screen)
Cell system: human THP-1 monocytic leukaemia cells, TNF dual-luciferase reporter clone, PMA-differentiated to macrophage-like cells
Knock-down reagent: siRNA pool against human genes, 50 nM
Time to read-out: LPS for 4 h, given about 3 days after siRNA transfection
Challenge: bacterial LPS (TLR4 ligand), 10 ng/ml
Detection: 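Ratio of firefly to renilla light, scaled to the plate median and expressed as a robust z-score per replicate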
Scale: TNF reporter robust z-score: higher = stronger TNF reporter response to LPS
Hit rule: 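a well is active when its z-score exceeds 2.8 or falls below -1.5; control wells carry no call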
This is an unselected part of about 18,000 deposited reagents. Of all reagents, about 2,900 (16%) were called active. 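Calls are made per well; low scores hint the gene aids the LPS response, high scores that it dampens it.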 Repeated entries: four replicate wells of each siRNA pool.

no.	Target gene	TNF reporter robust z-score	activity call
1	ARHGEF3 (Rho guanine nucleotide exchange factor 3)	-1.17	inactive
2	ARHGEF3 (Rho guanine nucleotide exchange factor 3)	-0.97	inactive
3	ARHGEF3 (Rho guanine nucleotide exchange factor 3)	-0.84	inactive
4	ARHGEF3 (Rho guanine nucleotide exchange factor 3)	-1.26	inactive
5	OR13C5 (olfactory receptor family 13 subfamily C member 5)	9.75	active
6	OR13C5 (olfactory receptor family 13 subfamily C member 5)	1.88	inactive
7	OR13C5 (olfactory receptor family 13 subfamily C member 5)	1.3	inactive
8	OR13C5 (olfactory receptor family 13 subfamily C member 5)	0.82	inactive
9	CDH18 (cadherin 18)	-0.92	inactive
10	CDH18 (cadherin 18)	-1.49	inactive
11	CDH18 (cadherin 18)	-0.75	inactive
12	CDH18 (cadherin 18)	-1.01	inactive
13	TIMM21 (translocase of inner mitochondrial membrane 21)	-1.04	inactive
14	TIMM21 (translocase of inner mitochondrial membrane 21)	0.62	inactive
15	TIMM21 (translocase of inner mitochondrial membrane 21)	-0.23	inactive
16	TIMM21 (translocase of inner mitochondrial membrane 21)	0.19	inactive
17	LRRC28 (leucine rich repeat containing 28)	-1.01	inactive
18	LRRC28 (leucine rich repeat containing 28)	-0.59	inactive
19	LRRC28 (leucine rich repeat containing 28)	-1.32	inactive
20	LRRC28 (leucine rich repeat containing 28)	-1.5	inactive
21	COL22A1 (collagen type XXII alpha 1 chain)	-0.34	inactive
22	COL22A1 (collagen type XXII alpha 1 chain)	-1.02	inactive
23	COL22A1 (collagen type XXII alpha 1 chain)	0.73	inactive
24	COL22A1 (collagen type XXII alpha 1 chain)	-0.24	inactive
25	PTBP2 (polypyrimidine tract binding protein 2)	0.98	inactive
26	PTBP2 (polypyrimidine tract binding protein 2)	0.07	inactive
27	PTBP2 (polypyrimidine tract binding protein 2)	-0.75	inactive
28	PTBP2 (polypyrimidine tract binding protein 2)	-0.23	inactive

An excerpt of the results above, as a working copy:
no.	Target gene	TNF reporter robust z-score	activity call
3	ARHGEF3 (Rho guanine nucleotide exchange factor 3)	-0.84	inactive
4	ARHGEF3 (Rho guanine nucleotide exchange factor 3)	-1.26	inactive
5	OR13C5 (olfactory receptor family 13 subfamily C member 5)	9.75	active
6	OR13C5 (olfactory receptor family 13 subfamily C member 5)	1.88	inactive
7	OR13C5 (olfactory receptor family 13 subfamily C member 5)	1.3	inactive
8	OR13C5 (olfactory receptor family 13 subfamily C member 5)	0.82	inactive
9	CDH18 (cadherin 18)	-0.92	inactive
10	CDH18 (cadherin 18)	-1.49	inactive
11	CDH18 (cadherin 18)	-0.75	inactive
12	CDH18 (cadherin 18)	-1.01	inactive
13	TIMM21 (translocase of inner mitochondrial membrane 21)	-1.04	inactive
14	TIMM21 (translocase of inner mitochondrial membrane 21)	0.62	inactive
15	TIMM21 (translocase of inner mitochondrial membrane 21)	-0.23	inactive

Continued.
no.	Target gene	TNF reporter robust z-score	activity call
29	HSD3B7	-0.54	inactive
30	HSD3B7	0.11	inactive
31	HSD3B7	-0.89	inactive
32	HSD3B7	-0.8	inactive
33	MC5R (melanocortin 5 receptor)	-0.51	inactive
34	MC5R (melanocortin 5 receptor)	0.3	inactive
35	MC5R (melanocortin 5 receptor)	-0.48	inactive
36	MC5R (melanocortin 5 receptor)	-0.28	inactive
37	ZNF497 (zinc finger protein 497)	-0.59	inactive
38	ZNF497 (zinc finger protein 497)	-0.36	inactive
39	ZNF497 (zinc finger protein 497)	-1.23	inactive
40	ZNF497 (zinc finger protein 497)	-0.9	inactive
41	RORB (RAR related orphan receptor B)	0.32	inactive
42	RORB (RAR related orphan receptor B)	0.63	inactive
43	RORB (RAR related orphan receptor B)	-0.3	inactive
44	RORB (RAR related orphan receptor B)	-0.02	inactive
45	ACVR2A (activin A receptor type 2A)	-0.91	inactive
46	ACVR2A (activin A receptor type 2A)	0.13	inactive
47	ACVR2A (activin A receptor type 2A)	-1.03	inactive
48	ACVR2A (activin A receptor type 2A)	0.6	inactive
49	IRF2BP1 (interferon regulatory factor 2 binding protein 1)	-0.67	inactive
50	IRF2BP1 (interferon regulatory factor 2 binding protein 1)	-0.55	inactive
51	IRF2BP1 (interferon regulatory factor 2 binding protein 1)	-1.54	active
52	IRF2BP1 (interferon regulatory factor 2 binding protein 1)	-0.34	inactive
53	SNX1 (sorting nexin 1)	-0.25	inactive
54	SNX1 (sorting nexin 1)	-0.94	inactive
55	SNX1 (sorting nexin 1)	-0.14	inactive
56	SNX1 (sorting nexin 1)	0.57	inactive
57	OR5L2 (olfactory receptor family 5 subfamily L member 2)	-0.99	inactive
58	OR5L2 (olfactory receptor family 5 subfamily L member 2)	-0.68	inactive
59	OR5L2 (olfactory receptor family 5 subfamily L member 2)	-1.04	inactive
60	OR5L2 (olfactory receptor family 5 subfamily L member 2)	-1.96	active
61	ZFYVE16 (zinc finger FYVE-type containing 16)	-0.51	inactive
62	ZFYVE16 (zinc finger FYVE-type containing 16)	0.1	inactive
63	ZFYVE16 (zinc finger FYVE-type containing 16)	0.21	inactive
64	ZFYVE16 (zinc finger FYVE-type containing 16)	0.17	inactive
65	RAB12 (RAB12, member RAS oncogene family)	0.69	inactive
66	RAB12 (RAB12, member RAS oncogene family)	-0.13	inactive
67	RAB12 (RAB12, member RAS oncogene family)	-0.3	inactive
68	RAB12 (RAB12, member RAS oncogene family)	-0.1	inactive
69	SENP1 (SUMO specific peptidase 1)	-0.09	inactive
70	SENP1 (SUMO specific peptidase 1)	0.19	inactive
71	SENP1 (SUMO specific peptidase 1)	0.26	inactive
72	SENP1 (SUMO specific peptidase 1)	0.32	inactive
73	ZNF160 (zinc finger protein 160)	0.12	inactive
74	ZNF160 (zinc finger protein 160)	0.14	inactive
75	ZNF160 (zinc finger protein 160)	0.68	inactive
76	ZNF160 (zinc finger protein 160)	-0.95	inactive
